Results: publication PMC12152122
These are yes or no findings as the source states them, for the method shown. In cells and extracts the contact can be indirect. Some entries that bind do so weakly or less than the wild type. For some of these results: Tags and fused reporters may be left off the sequences shown.

Sequences of proteins named here, by UniProt entry; tags and fusion partners are left off.
UniProt Q9Y266: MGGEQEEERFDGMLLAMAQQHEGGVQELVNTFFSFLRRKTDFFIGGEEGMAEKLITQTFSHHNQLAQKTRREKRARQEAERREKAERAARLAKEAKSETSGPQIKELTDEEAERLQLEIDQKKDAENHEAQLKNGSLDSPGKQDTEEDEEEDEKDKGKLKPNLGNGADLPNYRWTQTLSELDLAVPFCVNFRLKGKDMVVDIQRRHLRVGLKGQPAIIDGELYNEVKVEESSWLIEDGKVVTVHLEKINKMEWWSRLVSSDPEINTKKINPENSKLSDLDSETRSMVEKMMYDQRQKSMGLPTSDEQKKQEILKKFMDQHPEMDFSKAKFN

How the values were obtained:
[1] = molecular target: T1, Flag-tagged full-length RNF41 (transfected in HEK293T cells) (UniProt Q9H4P4); test: co-IP; HEK293T cells co-transfected with Myc-NUDC and Flag-tagged full-length RNF41 or its deletion mutants; immunoprecipitation with Flag beads, immunoblot with antibodies against Myc and Flag
T1 sequence: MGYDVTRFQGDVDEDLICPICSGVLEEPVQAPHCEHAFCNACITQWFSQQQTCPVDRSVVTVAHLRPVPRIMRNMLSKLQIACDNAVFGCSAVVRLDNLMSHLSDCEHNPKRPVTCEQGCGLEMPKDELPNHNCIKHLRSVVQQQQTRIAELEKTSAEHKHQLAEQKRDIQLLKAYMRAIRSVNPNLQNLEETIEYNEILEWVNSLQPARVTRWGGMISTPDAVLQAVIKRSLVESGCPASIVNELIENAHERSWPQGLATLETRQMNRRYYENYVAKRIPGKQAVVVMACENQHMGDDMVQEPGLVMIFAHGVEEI

[2] = molecular target: T2, FLAG-tagged RNF41 (transfected in T24 cells) (UniProt Q9H4P4); test: co-IP; T24 cells transfected with FLAG-RNF41 and MYC-NUDC plasmids for 36 h; tagged protein with the endogenous counterpart
T2 sequence: T1 sequence

[3] = molecular target: MYC-tagged NUDC (transfected in T24 cells) (UniProt Q9Y266); test: as above
[4] = molecular target: Nuclear distribution protein C (NUDC) (endogenous, T24 cells) (human (endogenous in T24)) (UniProt Q9Y266); test: co-IP; endogenous proteins in T24 cells

Myc-NUDC (transfected in HEK293T cells) (from UniProt Q9Y266 1-331)
binding [1]: binds

Nuclear distribution protein C (NUDC) (endogenous, T24 cells) (from UniProt Q9Y266 1-331)
binding [2]: binds

B1: RNF41 (endogenous, T24 cells) (protein, UniProt Q9H4P4 1-317)
chain: T1 sequence
binding [3]: binds | binding [4]: binds
